Reference: PubChem BioAssay AID504774 (Drosophila RNAi Screening Center, 2011)
In all, the deposit lists about 23,000 reagents; this is a random part of those that have a named target and a result. 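Values are quantile-normalised luminescence on an arbitrary scale; higher means more cells surviving MMS.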 Reagents against one gene are numbered here. A plus sign joins genes that one reagent is predicted to hit. No sequences are given here.

- Assay: 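Genes required for cells to withstand methyl methanesulphonate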 (primary screen)
- System: Drosophila Kc167 cells
- Knock-down reagent: long dsRNA against Drosophila genes, about 0.25 µg dsRNA per well
- Time to read-out: about 6 days: 3 days knock-down, then 3 days with or without MMS
- Treatment: methyl methanesulphonate 0.004% (w/v) for 3 days after knock-down
- Detection: 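ATP-dependent luminescence as a measure of live cells in MMS-exposed wells, quantile normalised within each plate, with replicate values also given as a mean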
- Scale: mean viability with MMS and viability with MMS: higher = more surviving cells after MMS

Gene	dsRNA no.	mean viability with MMS	viability with MMS, replicate 1	viability with MMS, replicate 2
Cbp53E	1	3.44e6	3.91e6	3.91e6
Bace	1	1.30e6	3.62e6	3.50e6
CG14043	1	3.52e6	4.15e6	3.84e6
mars	1	3.62e6	4.16e6	4.04e6
CG34281	1	3.22e6	3.59e6	3.71e6
RNASEK	1	3.49e6	3.98e6	3.96e6
Ir60a	1	3.45e6	3.90e6	3.91e6
tbrd-2	1	3.45e6	3.92e6	3.89e6
Trs31	1	3.59e6	4.03e6	4.11e6
CG15422	1	3.58e6	3.93e6	4.18e6
mex1	1	3.35e6	3.87e6	3.66e6
Ugt304A1	1	3.45e6	3.98e6	3.86e6
CG17329	1	3.45e6	3.94e6	3.88e6
Nnf1a	1	3.54e6	3.91e6	4.11e6
Larp7	1	3.40e6	3.88e6	3.85e6
vimar	1	3.64e6	3.89e6	4.13e6
snoRNA:Me28S-C3420b + RpS11	1	3.74e6	4.16e6	4.35e6
coil	1	3.63e6	4.19e6	4.06e6
Gmppa	1	3.40e6	3.93e6	3.85e6
Pex19	1	3.54e6	3.87e6	4.15e6
CG14205	1	3.61e6	4.04e6	4.11e6
CG9175	1	3.25e6	3.46e6	3.77e6
crp	1	3.33e6	3.78e6	3.73e6
Obp19a	1	3.70e6	4.20e6	4.11e6
Hel25E	1	2.94e6	3.04e6	3.45e6
CG10984	1	3.76e6	4.09e6	4.45e6
ppk21	1	3.63e6	4.14e6	4.09e6
Desi	1	3.67e6	4.07e6	4.15e6
moon	1	3.45e6	3.90e6	3.90e6
MCPH1	1	3.59e6	4.11e6	4.03e6
MCPH1	2	3.38e6	3.96e6	3.57e6
MCPH1	3	3.64e6	4.11e6	4.08e6
His1:CG33816 + His1:CG33828 + His1:CG33819 + 21 more	1	3.33e6	3.76e6	3.81e6
Idi	1	3.70e6	4.32e6	4.01e6
TTLL1B	1	3.64e6	4.12e6	4.15e6
CG31706	1	3.46e6	3.92e6	3.99e6
CG7239	1	2.66e6	2.84e6	3.04e6
CG7239	2	3.69e6	4.20e6	4.18e6
CG4022	1	3.41e6	3.78e6	3.91e6
CG7914	1	3.59e6	4.07e6	4.05e6
CG17376	1	3.35e6	3.76e6	3.94e6
Neb-cGP	1	3.58e6	4.04e6	4.04e6
CycH	1	3.65e6	4.09e6	4.15e6
CycH	2	3.41e6	3.93e6	3.90e6

12 neighbouring records from above, for reference:
Gene	dsRNA no.	mean viability with MMS	viability with MMS, replicate 1	viability with MMS, replicate 2
Nnf1a	1	3.54e6	3.91e6	4.11e6
Larp7	1	3.40e6	3.88e6	3.85e6
vimar	1	3.64e6	3.89e6	4.13e6
snoRNA:Me28S-C3420b + RpS11	1	3.74e6	4.16e6	4.35e6
coil	1	3.63e6	4.19e6	4.06e6
Gmppa	1	3.40e6	3.93e6	3.85e6
Pex19	1	3.54e6	3.87e6	4.15e6
CG14205	1	3.61e6	4.04e6	4.11e6
CG9175	1	3.25e6	3.46e6	3.77e6
crp	1	3.33e6	3.78e6	3.73e6
Obp19a	1	3.70e6	4.20e6	4.11e6
Hel25E	1	2.94e6	3.04e6	3.45e6

The listing continues.
Gene	dsRNA no.	mean viability with MMS	viability with MMS, replicate 1	viability with MMS, replicate 2
CG34376	1	3.44e6	3.91e6	3.91e6
CG34376	2	3.34e6	3.78e6	3.83e6
CG34376	3	3.49e6	3.91e6	4.01e6
Atf3	1	2.87e6	3.64e6	3.66e6
Atf3	2	3.54e6	4.01e6	4.06e6
epsilonTry	1	3.82e6	4.67e6	4.00e6
VhaAC45	1	3.38e6	3.85e6	3.77e6
Smyd4-1	1	3.63e6	4.13e6	4.13e6
Socs44A	1	3.57e6	4.07e6	4.01e6
CG11696	1	3.34e6	3.59e6	3.76e6
MAGE	1	3.52e6	4.02e6	3.98e6
wnd	1	3.50e6	3.95e6	3.99e6
wnd	2	3.44e6	3.90e6	3.88e6
wnd	3	3.52e6	4.04e6	3.97e6
Slc25A46b	1	3.49e6	3.92e6	4.00e6
Gpa2	1	3.49e6	4.04e6	3.90e6
edin	1	3.53e6	4.15e6	3.85e6
CG13733	1	3.52e6	4.04e6	3.95e6
CG13036 (retired record)	1	3.77e6	4.22e6	4.25e6
CG4953	1	3.66e6	4.38e6	3.98e6
Dg	1	3.58e6	3.94e6	4.17e6
Coq4 + Gorab + frc	1	3.44e6	3.92e6	3.85e6
Nup154	1	3.21e6	3.58e6	3.61e6
CG7201	1	3.68e6	4.06e6	4.29e6
RhoGDI	1	3.65e6	4.12e6	4.13e6
CG9849	1	3.64e6	4.21e6	4.05e6
CG32706 + CG6999	1	3.58e6	4.07e6	4.03e6
Mhcl	1	3.42e6	3.95e6	3.81e6
Mhcl	2	3.46e6	3.97e6	3.85e6
Mhcl	3	3.50e6	4.09e6	3.86e6
CG2841	1	3.59e6	4.05e6	4.06e6
CG2841	2	3.44e6	3.86e6	3.94e6
CG2841	3	3.67e6	4.10e6	4.15e6
CG43737	1	3.42e6	3.90e6	3.81e6
Mcm5	1	3.52e6	4.07e6	3.93e6
Mekk1	1	3.59e6	3.93e6	4.20e6
Mekk1	2	3.43e6	3.86e6	3.94e6
CG15256	1	3.54e6	3.97e6	4.07e6
CG18789	1	3.79e6	4.20e6	4.23e6
Aprt	1	3.50e6	3.95e6	3.99e6
CG14448	1	3.61e6	4.10e6	4.08e6
CG1463	1	3.55e6	4.02e6	3.82e6
CG32195	1	3.50e6	4.02e6	3.93e6
